Data as given in PubChem BioAssay AID1347075 (National Center for Advancing Translational Sciences (NCATS), 2019).
Hit rate of the full screen: of about 400,000 compounds, about 5,500 (1.4%) were called active. The shares of active, inactive and inconclusive entries below differ from those in the screen. The call rests on the fitted dose curve; in most records, active means well fitted cell-killing curve with a large enough effect; inconclusive means small, poorly fitted or top-dose-only effect, or effect the other way; inactive means flat fitted curve, though single readings scatter. Where the call is inconclusive, the potency comes from a doubtful curve fit.

Test: qHTS assay for MDR1-selective chemotherapeutics: Primary screen using the parental adenocarcinoma cell KB-3-1; further: nearly all actives have a fitted effect of over 60% in size
Conditions: KB-3-1 viability, CellTiter-Glo ATP luminescence, 72 h; activity change, negative = cytotoxic: at 46.1 µM (top of the series)
Outline: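 KB-3-1 cells, DMEM (no phenol red) + 10% FBS; compound by pin transfer, 72 h, 37 °C. Readout: CellTiter-Glo luminescence after 10 min. Data normalized, curve-fitted.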
On the % scale 0 is the no-effect control and ±100 the full control effect; potency means the concentration at half of the fitted maximal effect.

Row | SMILES | Potency | activity change, negative = cytotoxic
1 | CCC(=O)Nc1ccc(C(=O)COC(=O)c2sc(C)nc2C)cc1 | inactive | –
2 | COc1ccc(CNC(=O)CSc2ncc3c(n2)-c2ccc(Cl)cc2N(Cc2ccccc2)S3(=O)=O)cc1 | inactive | –
3 | O=C(NC1CCCCC1)N1CCN(Cc2ccco2)CC1 | inactive | –
4 | O=[N+]([O-])c1cccc(-c2ccc(SCc3ccccn3)nn2)c1 | – | inconclusive: 36.6%
5 | CCOc1ccccc1NC(=O)CCc1c(C)nn(-c2ccc(N3CCCCC3)nn2)c1C | inactive | –
6 | CCN(C[C@H]1N[C@@](Cc2ccccc2)(C(=O)OC)[C@H]2C(=O)N(C)C(=O)[C@@H]12)C(=O)Nc1ccc(C(F)(F)F)cc1 | inactive | –
7 | CN(C(=O)Cn1nc(C(=O)O)c2ccccc2c1=O)C1(C#N)CCCCC1 | inactive | –
8 | O=C1C2C3C=CC(C3)C2C(=O)N1CCCCCCN1C(=O)C2C3C=CC(C3)C2C1=O (stereo not drawn) | inconclusive: 11.6 µM [cytotoxic, partial curve] | –
9 | O=C(Nc1ccccc1N1CCCCC1)C1CCN(C(=O)c2ccc(Cl)cc2)CC1 | inactive | –
10 | Cc1ccccc1OCC(=O)NCC(=O)N/N=C/c1ccc(Br)o1 | – | inconclusive: 4.51%
11 | COc1ccc(CN2C(=O)c3cccnc3C2=O)cc1S(=O)(=O)N1CCCC(C)C1 (stereo not drawn) | inactive | –
12 | COc1ccc(C2(c3ccc(OC)cc3)NC(=O)N(CC(=O)NC3(C#N)CCCC3)C2=O)cc1 | inconclusive: 32.6 µM [rising, partial curve, poor fit] | –
13 | CC(=O)Nc1ccc(N2CCN(C(=O)c3cccs3)CC2)cc1 | inactive | –
14 | O=C(NC(=S)Nc1cccc2cc(O)ccc12)c1ccco1 | inconclusive: 0.58 µM [cytotoxic, partial curve, poor fit] | –
15 | CC1(C(=O)NS(=O)(=O)c2cccc(F)c2)CCN1C(=O)C1(c2ccc(Cl)cc2)CCC1 (stereo not drawn) | inactive | –
16 | Cc1ccc(C(=O)Nc2nc(-c3ccccn3)cs2)cc1S(=O)(=O)N1CCOCC1 | inactive | –
17 | COc1cccc(-c2nn(-c3ccccc3)cc2C(=O)Nc2nccs2)c1 | inactive | –
18 | CCC(=O)OCOc1ccc(/C=C2/CCC(CN(C)C)C2=O)cc1 (stereo not drawn) | inconclusive: 29.1 µM [cytotoxic, single point] | –
19 | Cc1cc(C)nc(NC(=O)/C=C/c2ccc3c(c2)OCO3)c1 | inconclusive: 18.4 µM [cytotoxic, single point] | –
20 | CCOC(=O)CN1C(=O)S/C(=C/c2ccc(O)c([N+](=O)[O-])c2)C1=O | inconclusive: 18.4 µM [cytotoxic, single point] | –
21 | CCCCC(=O)NC(c1ccccc1OC)c1ccc2cccnc2c1O (stereo not drawn) | active: 6.51 µM | –
22 | CC(=O)c1sc(NC(=O)c2ccc(F)c(S(=O)(=O)N3CCOCC3)c2)nc1C | inactive | –
23 | CC1C(=O)N(Cc2cn(Cc3ccco3)nn2)CCS(=O)(=O)N1Cc1ccc(-c2ccc(Cl)c(Cl)c2)cc1 (stereo not drawn) | inconclusive: 25.9 µM [cytotoxic, single point] | –

Single entries from the list:
Potency, Cc1ccc(C(=O)Nc2nc(-c3ccccn3)cs2)cc1S(=O)(=O)N1CCOCC1 reads inactive
Potency, O=C(NC1CCCCC1)N1CCN(Cc2ccco2)CC1 reads inactive

(continued)

Row | SMILES | Potency | activity change, negative = cytotoxic
24 | O=C1CCN(Cc2ccccc2)C=C1c1ccc(Br)cc1 | inconclusive: 32.6 µM [cytotoxic, single point] | –
25 | COc1ccc(S(=O)(=O)N2c3ccccc3OCC2CC(=O)O)cc1 (stereo not drawn) | inconclusive: 18.4 µM [cytotoxic, single point] | –
26 | Cc1csc2nc(O)c(C(=O)NCCC3=CCCCC3)c(=O)n12 | inactive | –
27 | CN(C)CCCC1Sc2ccccc2Sc2ccccc21 (stereo not drawn) | inconclusive: 20.6 µM [cytotoxic, single point] | –
28 | C=CC[C@H](CC(=O)N(CCO)Cc1ccccc1)C(=O)NC[C@H](OC(=O)[C@@H](CC=C)Cc1ccc(F)cc1)c1ccccc1 | inconclusive: 29.1 µM [cytotoxic, single point] | –
29 | O=C(NCc1cccs1)c1cc(-c2ccc(O)cc2)on1 | inconclusive: 23.1 µM [cytotoxic, single point] | –
30 | CCc1cccc(-n2nnc(-c3nsc(NC(=O)c4cccc(OC)c4)n3)c2C)c1 | inconclusive: 29.1 µM [cytotoxic, single point] | –
31 | CCOC(=O)c1cc2c(=Cc3ccc(N(C)C)cc3)c3ccccc3n2[n+]1C | active: 2.06 µM | –
32 | COc1cc(NC(=O)CSc2nc3ncnc(N)c3[nH]2)c(C(=O)O)cc1OC | inconclusive: 20.6 µM [rising, partial curve] | –
33 | CC(=O)Nc1ccc(Nc2cc(C)nc3c(-c4ccccc4)cnn23)cc1 | inconclusive: 29.1 µM [cytotoxic, single point] | –
34 | CC(C)(C)C(=O)OC/C(N)=N/OC(=O)c1ccccc1 | inactive | –
35 | Cc1ccc(C)c(-c2nnc(OCC(=O)Nc3cc(C)on3)c3ccccc23)c1 | inconclusive: 29.1 µM [cytotoxic, single point] | –
36 | COc1ccccc1Nc1sc(C(=O)c2ccc(F)cc2)c(N)c1S(=O)(=O)c1ccc(C)cc1 | inactive | –
37 | O=S(=O)(c1ccc(F)cc1)N1CCN(Cc2cc3c(cc2Br)OCCO3)CC1 | inconclusive: 29.1 µM [cytotoxic, single point] | –
38 | NC(=S)N/N=C\c1ccccc1OCc1ccccc1 | inconclusive: 29.1 µM [cytotoxic, partial curve, poor fit] | –
39 | NC(=S)N/N=C/c1ccc(-n2nncc2-c2ccc(Cl)cc2)cc1 | inconclusive: 29.1 µM [cytotoxic, single point] | –
40 | COc1cc(C(=O)N(c2ccc(C)c(C)c2)C2C=CS(=O)(=O)C2)cc(OC)c1OC (stereo not drawn) | inconclusive: 29.1 µM [rising, single point] | –
41 | COc1ccc(-c2nc3c(Cl)cc(C(F)(F)F)cn3c2Cc2ccccc2C(F)(F)F)cc1OC | inconclusive: 20.6 µM [cytotoxic, partial curve, poor fit] | –
42 | O=C(NCc1cccc(C(F)(F)F)c1)C1CC(c2ccccc2[N+](=O)[O-])=NO1 (stereo not drawn) | inconclusive: 29.1 µM [cytotoxic, single point] | –
43 | OC(COc1ccccc1Cl)CN1CCN(CC(O)COc2ccccc2Cl)CC1 (stereo not drawn) | inconclusive: 29.1 µM [cytotoxic, single point] | –
44 | Cc1ccccc1Cc1c(C)nc2nc(SCC(=O)NCc3ccco3)nn2c1C | inconclusive: 29.1 µM [cytotoxic, single point] | –
45 | CC(CC(=O)N1CCN(c2cccc(Cl)c2)CC1)S(=O)(=O)c1ccc2c(c1)NC(=O)CO2 (stereo not drawn) | – | inconclusive: -34.9% [cytotoxic]
46 | NC(=O)CSc1nnc(-c2cc3ccccc3o2)n1Cc1ccccc1 | inconclusive: 29.1 µM [cytotoxic, single point] | –

Row | SMILES | Potency | activity change, negative = cytotoxic
47 | CCN1CCN(S(=O)(=O)c2ccc(Cl)c(C(=O)Nc3ccccc3N3CCCCC3)c2)CC1 | inconclusive: 32.6 µM [cytotoxic, single point] | –
48 | CCOC(=O)c1ccc(NC(=O)c2ccc(=O)n(Cc3cccc(C)c3)c2)cc1 | inactive | –
49 | CN1OC[C@@H]2CN(C(=S)NCCc3ccccc3)[C@H](c3ccc(N4CCCCC4)cc3)C[C@@H]21 | inactive | –
50 | COc1ccccc1CNC(=O)C/C(C)=N/NC(=O)COc1ccc(C)cc1Br | active: 23.1 µM | –
51 | Cc1cc(OCC(=O)C(C)(C)C)c2c(-c3ccccc3)cc(=O)oc2c1 | inactive | –
52 | Cc1nn(C)c(C(=O)Nc2ccc(Cn3cccn3)cc2)c1[N+](=O)[O-] | inconclusive: 18.4 µM [rising, partial curve, poor fit] | –
53 | COC(=O)c1c(NC(=O)C2CCCCC2)sc2c1CC(C)(C)NC2(C)C | inconclusive: 20.6 µM [cytotoxic, single point] | –
54 | COc1cc(OC)cc(C(=O)N[C@H](C(=O)OCC(=O)Nc2ccc(C)cc2C)C(C)C)c1 | inconclusive: 29.1 µM [rising, single point] | –
55 | COc1ccc(NC(=O)CSc2nnc(C)n2C2CC2)cc1S(=O)(=O)N1CCOCC1 | inactive | –
56 | O=C(NCC(O)c1ccccc1)c1ccc(Cl)c(S(=O)(=O)N2CCCCC2)c1 (stereo not drawn) | inconclusive: 11.6 µM [cytotoxic, partial curve, poor fit] | –
57 | Fc1ccc(C(c2nnnn2C2CCCCC2)N2CCCC2)cc1 (stereo not drawn) | inactive | –
58 | COc1cccc(C(=O)N/N=C/c2ccc(Oc3ccc([N+](=O)[O-])cn3)c(OC)c2)c1 | inconclusive: 29.1 µM [cytotoxic, single point] | –
59 | CN1CC[C@]23c4ccccc4N[C@H]1[C@]21CCN(C)[C@H]3Nc2ccccc21 | inactive | –
60 | O=C(COc1ccccc1-c1ccccc1)N/N=C/c1ccccn1 | inactive | –
61 | Cc1ccc(NC(=O)CN2CCSc3ccc(S(=O)(=O)N4CCCC4)cc32)cc1C | inconclusive: 16.4 µM [cytotoxic, single point] | –
62 | COc1ccc(/C=C2\SC(=O)N(CC(=O)Nc3cccnc3)C2=O)cc1OC | inactive | –
63 | COc1ccc(OC)c(C(=O)/C=C/c2ccccc2C(F)(F)F)c1 | inconclusive: 29.1 µM [cytotoxic, single point] | –
64 | O=C(NNc1ccccc1)C(=O)NNS(=O)(=O)c1ccc(CCCl)cc1 | inconclusive: 29.1 µM [cytotoxic, single point] | –
65 | Cc1ccc(S(=O)(=O)Nc2cc(Cl)c(O)c3ncccc23)cc1 | inconclusive: 4.61 µM [cytotoxic, full curve, poor fit] | –
66 | O=C1CN(C(=O)c2ccc(S(=O)(=O)N3CCCC3)cc2)C(c2ccccc2)c2cc(Br)ccc2N1 (stereo not drawn) | inconclusive: 25.9 µM [cytotoxic, single point] | –
67 | CCOC(=O)c1c(C)n(-c2ccc(OC)cc2)c2ccc(O)c(CN(C)C)c12 | inconclusive: 5.8 µM [cytotoxic, single point] | –
68 | COc1ccc(C(=O)CSc2nnc3n2CCCN3C(=O)Nc2ccccc2)cc1 | inconclusive: 4.61 µM [rising, full curve, poor fit] | –

Reprinted at random: 2 compounds from above.
Row | SMILES | Potency | activity change, negative = cytotoxic
54 | COc1cc(OC)cc(C(=O)N[C@H](C(=O)OCC(=O)Nc2ccc(C)cc2C)C(C)C)c1 | inconclusive: 29.1 µM [rising, single point] | –
60 | O=C(COc1ccccc1-c1ccccc1)N/N=C/c1ccccn1 | inactive | –
